Values of other authors as cited in publication PMC8566969, “Comparison of viral RNA–host protein interactomes across pathogenic RNA viruses informs rapid antiviral drug discovery for SARS-CoV-2” (Cell Research, 2021).

Biological target: SARS-CoV-2 RNA interacting human proteins
Settings: cited from earlier work

## CC/C(=C(\c1ccccc1)c1ccc(OCCN(C)C)cc1)c1ccccc1 [tamoxifen]
  ACT_VALUE, ACT_TYPE Kd: 9
